Laboratory results reported in patent publication US9944597B2, “Polysubstituted pyrroles having microtubule-disrupting, cytotoxic and antitumor activities and methods of use thereof” (THE BOARD OF REGENTS OF THE UNIVERSITY OF TEXAS SYSTEM, priority 2013, dated 2018).

System: A-10 cells
Experiment: Cellular microtubule loss by indirect immunofluorescence
Assay type: cell-based, rat
Conditions: Table 52; microtubule loss EC50 over MDA-MB-435 IC50
Protocol: The effects of representative compounds on cellular microtubules were evaluated in A-10 (embryonic rat vascular smooth muscle cell line) cells using indirect immunofluorescence techniques as previously described (Tinley et al., Cancer Res. 63, 3211-20 (2003)). Cells were visualized using a Nikon Eclipse 80i fluorescence microscope and NIS Elements software. Changes in both interphase and mitotic microtubules were noted and photographed. The EC50 values, the concentration that causes approximately 50% loss of interphase microtubules was determined by evaluating a range of concentrations of each compound and the percent cellular microtubule depolymerization that was observed visually at each concentration was noted.
Microtubules were visualized by indirect immunofluorescence using a β-tubulin antibody, and the DNA was visualized with DAPI. A representative concentration response curve for NT-7-16 is also shown in FIG. 1 that was used to calculate its corresponding EC50 for microtubule loss. Concentration response curves for microtubule loss were plotted using data from at least three experiments for each compound and the corresponding EC50 values for microtubule loss are presented in Table 50.

Going from `CCOC(=O)c1[nH]c(C=NO)c(-c2ccc(OC)c(OC)c2OC)c1Br` (mixture of isomers) [Example 10a, Cis/Trans-3-Bromo-4-(2,3,4-trimethoxyphenyl)-5-oximino-1H-pyrrole 2-carboxylic acid ethyl ester] to `CCOC(=O)c1[nH]c(C=NOC)c(-c2ccc(OC)c(OC)c2OC)c1Br` (mixture of isomers) [Example 12, Cis/Trans-3-Bromo-4-(2,3,4-trimethoxyphenyl)-5-(O-methyl-oximino)-1H-pyrrole-2-carboxylic acid ethyl ester], the EC50/IC50 falls from 3.3 to 2.9.

Compared with `CCOC(=O)c1[nH]c(C=NO)c(-c2ccc(OC)c(OC)c2OC)c1Cl` (mixture of isomers) [Example 21, Cis/Trans-3-chloro-4-(2,3,4-trimethoxyphenyl)-5-oximino-1H-pyrrole 2-carboxylic acid ethyl ester], `CCOC(=O)c1[nH]c(C=O)c(-c2ccc(OC)c(OC)c2OC)c1Br` [Example 2, 3-Bromo-4-(2,3,4-trimethoxyphenyl)-5-formyl-1H-pyrrole 2-carboxylic acid ethyl ester] is lower in EC50/IC50: 1.9 for the first, 1.2 for the second.

`CCOC(=O)c1[nH]c(C=O)c(-c2ccc(OC)c(OC)c2OC)c1Cl` [Example 3, 3-Chloro-4-(2,3,4-trimethoxyphenyl)-5-formyl-1H-pyrrole 2-carboxylic acid ethyl ester] and `CCOC(=O)c1[nH]c(C=O)c(-c2ccc(OC)c(OC)c2OC)c1I` [Example 4, 3-Iodo-4-(2,3,4-trimethoxyphenyl)-5-formyl-1H-pyrrole 2-carboxylic acid ethyl ester] are the same in EC50/IC50: 1.7 for the first, 1.7 for the second.

Compared with `CCOC(=O)c1[nH]c(CO)c(-c2ccc(OC)c(OC)c2OC)c1Br` [Example 5, 3-Bromo-5-(hydroxymethyl)-4-(2,3,4-trimethoxyphenyl)-1H-pyrrole 2-carboxylic acid ethyl ester], `CCOC(=O)c1[nH]c(C(F)F)c(-c2ccc(OC)c(OC)c2OC)c1Br` [Example 6, 3-Bromo-4-(2,3,4-trimethoxyphenyl)-5-(difluoromethinyl)-1H-pyrrole 2-carboxylic acid ethyl ester] is lower in EC50/IC50: 3.0 for the first, 2.8 for the second.

`C=Cc1[nH]c(C(=O)OCC)c(Br)c1-c1ccc(OC)c(OC)c1OC` [Example 7, 3-Bromo-5-vinyl-4-(2,3,4-trimethoxyphenyl)-1H-pyrrole 2-carboxylic acid ethyl ester] and `CCOC(=O)c1[nH]c(/C=C\C(=O)OC)c(-c2ccc(OC)c(OC)c2OC)c1Br` [Example 8a, Cis-3-Bromo-5-(3-methoxy-3-oxoprop-1-en-1-yl)-4-(2,3,4-trimethoxyphenyl)-1H-pyrrole-2-carboxylic acid ethyl ester] are the same in EC50/IC50: 2.3 for the first, 2.3 for the second.

Compared with `CCOC(=O)c1[nH]c(/C=C/C(=O)OC)c(-c2ccc(OC)c(OC)c2OC)c1Br` [Example 8b, Trans-3-Bromo-5-(3-methoxy-3-oxoprop-1-en-1-yl)-4-(2,3,4-trimethoxyphenyl)-1H-pyrrole-2-carboxylic acid ethyl ester], `CCOC(=O)c1[nH]c(C(=O)O)c(-c2ccc(OC)c(OC)c2OC)c1Br` [Example 9, 3-Bromo-4-(2,3,4-trimethoxyphenyl)-5-carboxy-1H-pyrrole 2-carboxylic acid ethyl ester] is higher in EC50/IC50: 2.6 for the first, 3 for the second.

Going from `CCOC(=O)c1[nH]c(C=NO)c(-c2ccc(OC)c(OC)c2OC)c1Br` [Example 10c] to `CCOC(=O)c1[nH]c(C#N)c(-c2ccc(OC)c(OC)c2OC)c1Br` [Example 11, 3-Bromo-4-(2,3,4-trimethoxyphenyl)-5-cyano-1H-pyrrole 2-carboxylic acid ethyl ester], the EC50/IC50 rises from 4 to 4.5.

Compared with `CCOC(=O)c1[nH]c(CN)c(-c2ccc(OC)c(OC)c2OC)c1Br` [Example 13, 5-(Aminomethylene)-3-Bromo-4-(2,3,4-trimethoxyphenyl)-1H-pyrrole 2-carboxylic acid ethyl ester], `CCOC(=O)c1[nH]c(CN)c(-c2ccc(OC)c(OC)c2OC)c1Cl` [Example 14] is higher in EC50/IC50: 2.3 for the first, 2.7 for the second.

Going from `CCCNC=C1NC(C(=O)OCC)C(Br)=C1c1ccc(OC)c(OC)c1OC` (stereo not drawn) [Example 17, 3-Bromo-5-(N-Propylaminomethylene)-4-(2,3,4-trimethoxyphenyl)-1H-pyrrole 2-carboxylic acid ethyl ester] to `CCCNC=C1NC(C(=O)OCC)C(Cl)=C1c1ccc(OC)c(OC)c1OC` (stereo not drawn) [Example 18, 3-Chloro-5-(N-Propylaminomethylene)-4-(2,3,4-Trimethoxyphenyl)-1H-pyrrole 2-carboxylic acid ethyl ester], the EC50/IC50 rises from 1.9 to 2.5.

“Cis-3-Bromo-4-(2,3,4-trimethoxyphenyl)-5-oximino-1H-pyrrole 2-carboxylic acid ethyl ester [Example 10b]” gave an EC50/IC50 of 4.2.

Same assay, conditions: Table 53; own compounds

`CCOC(=O)c1[nH]c(Br)c(-c2ccc(OC)c(OC)c2OC)c1Br` [NT-7-16, 3,5-Dibromo-4-(2,3,4-trimethoxyphenyl)-1H-pyrrole-2-carboxylic acid ethyl ester] showed an EC50/IC50 of 3.3.

System: A-10 cells
Experiment: not given
Conditions: Table 53; literature data from Da et al. 2013; cited from earlier work

For `CCOC(=O)c1[nH]c(Br)c(-c2ccc(OC)c(OC)c2)c1Br` [JG-03-14, 4-[(3,4-dimethoxy)-phenyl]-3,5-dibromopyrrole 2-carboxylic acid ethyl ester], the EC50/IC50 is given as 13.6.
